Results are given in words; binding and its absence hold for the method and conditions named. Some binding calls cover weakened binding; strength is not graded here.
Columns and labels:
H6NA3 [1] = target: H6NA3 (UniProt P06731); assay: phage ELISA on H6NA3, anti-M13-HRP, OD630
H6NA3 [2] = target: H6NA3 (UniProt P06731); assay: phage ELISA on dried H6NA3 plate
H6NA3 [3] = target: H6NA3 (UniProt P06731); assay: phage ELISA, NA3 coated at 0.1, 0.05, 0.01, 0.005, 0.001 ug/well and no target
H6NA3 [4] = target: H6NA3 (UniProt P06731); assay: phage ELISA, varying amounts of NA3 per well (FIG. 2)
H6NA3 [5] = target: H6NA3 (UniProt P06731); assay: competition phage ELISA, target 0.1 ug/well, soluble peptide DX-207 at 20, 2 and 0 uM, and no target
H6NA3 [6] = target: H6NA3 (UniProt P06731); assay: phage ELISA on H6NA3 coated at 100 ng/well, 5x10^10 phage/well, anti-M13-HRP; bars No Ab, 10 nM and 100 nM cT84.66, BSA
H6NA3 [7] = target: H6NA3 (UniProt P06731); assay: phage ELISA on NA3
H6NA3 [8] = target: H6NA3 (UniProt P06731); assay: competition phage ELISA, target 0.1 ug/well; blocked ligands: phage A07, G08, 304A-11-F02
H6NA3 [9] = target: H6NA3 (UniProt P06731); assay: phage ELISA, NA3 at 30, 10.0, 3.0 and 0 ng/well
H6NA3 [10] = target: H6NA3 (UniProt P06731); assay: competition phage ELISA on NA3, soluble peptide DX306 at 10, 5, 2.5, 0.5 and 0 uM, and no target
H6NA3 [11] = target: H6NA3 (UniProt P06731); assay: competition phage ELISA on NA3, soluble peptide DX306 at 20, 10, 5, 2.5, 1.25, 0.625 and 0 uM, and no target [a]
H6NA3 [12] = target: H6NA3 (UniProt P06731); assay: phage ELISA, NA3 at 30, 10, 3 and 0 ng/well

Sequences of proteins named here, by UniProt entry; tags and fusion partners are left off. A change or cut given only in a name is not applied to a line headed by its entry. A line that says so, or that is headed by a name, gives the form on record, which may keep a tag or linker.
H6NA3 (P06731, form named): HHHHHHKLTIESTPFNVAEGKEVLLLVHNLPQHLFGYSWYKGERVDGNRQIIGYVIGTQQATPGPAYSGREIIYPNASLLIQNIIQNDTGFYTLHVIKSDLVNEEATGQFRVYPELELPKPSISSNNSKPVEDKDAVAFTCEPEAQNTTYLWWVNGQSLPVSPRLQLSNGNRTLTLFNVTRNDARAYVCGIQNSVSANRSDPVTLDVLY

Row | Binder | binding (H6NA3 [2]) | binding (H6NA3 [6]) | binding (H6NA3 [7]) | binding (H6NA3 [9]) | binding (H6NA3 [10]) | other results
1 | RYCEFFPWSLHCGRP [TN10/9 Isolate B10 (phage isolate)] | – | – | – | – | – | binding (H6NA3 [1]): no binding (tested: 5x10^10 phage/well on 100 ng H6NA3/well)
2 | NWVCNLFKNQWFCNSY [TN10/9 Isolate G08 (phage isolate)] | binds | binds | – | – | – | binding (H6NA3 [3]): binds; binding (H6NA3 [4]): binds; binding (H6NA3 [5]): binds
3 | DWVCNLFKNQWFCDTL [304A-14-A12 (phage isolate)] | – | – | binds | – | – | binding (H6NA3 [3]): binds; binding (H6NA3 [4]): binds; binding (H6NA3 [5]): binds
4 | DWVCNFDQGLAHCFPS [TN10/9 Isolate D04 (phage isolate)] | binds | binds | – | – | – | –
5 | DWVCENKKDQWTCNLL [TN10/9 Isolate A07 (phage isolate)] | binds | binds | – | – | – | binding (H6NA3 [3]): binds; binding (H6NA3 [4]): binds; binding (H6NA3 [5]): binds
6 | NWVCNLFKNQWFCNSY [DX-207] | – | – | – | – | – | binding (H6NA3 [8]): binds
7 | DWVCEWLKPQWYCNSL [315A-17-B12 (phage isolate)] | – | – | binds | binds | binds | –
8 | DWVCEFFKDQWFCNIL [315A-18-E02 (phage isolate)] | – | – | binds | binds | binds | –
9 | NWDCMFGAEGWACSPW [TN10/9 Isolate E01 (phage isolate)] | binds | binds | – | – | – | –
10 | NWRCKLFPRYPYCSSW [TN10/9 Isolate G01 (phage isolate)] | – | – | – | – | – | binding (H6NA3 [1]): no binding (tested: 5x10^10 phage/well on 100 ng H6NA3/well)
11 | DWVCEFIKSQWFCNVL [315A-17-G08 (phage isolate)] | – | – | binds | binds | binds | –
12 | DWVCEWLKMQWACNIL [315A-17-B01 (phage isolate)] | – | – | binds | binds | binds | –
13 | DWVCEYFKNQWFCNVL [304A-12-H12 (phage isolate)] | – | – | binds | binds | binds | binding (H6NA3 [11]): binds; binding (H6NA3 [12]): binds; binding (H6NA3 [3]): binds; binding (H6NA3 [4]): binds; binding (H6NA3 [5]): binds
14 | DWVCEIVKNQWICNPL [315A-18-E01 (phage isolate)] | – | – | binds | binds | binds | –
15 | NWFCEMIGRQWGCVPS [TN10/9 Isolate F11 (phage isolate)] | binds | binds | – | – | – | –
